# This is one part of the list.
# B1: Ovorubin (Pomacea canaliculata), J7I2T6 (protein)
# chain: MFVATSLLLAIATLVVRASPHNYLIMDIEPPKSVSERDILNLLSPLQVKHSFRVTGSTRLLIVIRLDAQSYEKLDEITVPGKVEVIPAVNMADTMERCGVSWPRVELTDDNVTLFESESTLTDVTKEQLKAMLIGYGEHMSGLLQAHRFEYYQAAGATPHRHFVFVNSVPDEIEVFGREGVDIWGGPGEFVVKPQYVTRI
# Columns and labels:
# Test in all cases: glycan array binding signal (z-score within array); higher = stronger binding
# Conditions in all cases: glycan notation: IUPAC condensed, linker removed
# [1] = target: GlcNAc(b1-3)Gal(b1-4)GlcNAc(b1-3)Gal(b1-4)GlcNAc(b1-2)Man(a1-3)[GlcNAc(b1-3)Gal(b1-4)GlcNAc(b1-3)Gal(b1-4)GlcNAc(b1-2)Man(a1-6)]Man(b1-4)GlcNAc(b1-4)GlcNAc
# Summary of the method: (§1)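 Columns mapping to the same glycan were averaged after glycan names were converted to IUPAC-condensed notation. The data come from 3228 arrays in the Consortium for Functional Glycomics database, limited to those with an available protein sequence. Binding is reported as a within-array Z-score averaged across arrays of one protein sequence and across linkers.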
# [2] = target: GlcNAc(b1-3)Gal(b1-4)GlcNAc(b1-3)Gal(b1-4)GlcNAc(b1-2)Man(a1-3)[GlcNAc(b1-3)Gal(b1-4)GlcNAc(b1-3)Gal(b1-4)GlcNAc(b1-2)Man(a1-6)]Man(b1-4)GlcNAc(b1-4)[Fuc(a1-6)]GlcNAc
# Summary of the method: as §1
# [3] = target: GlcNAc(b1-3)Gal(b1-4)GlcNAc(b1-3)Gal(b1-4)GlcNAc(b1-2)[GlcNAc(b1-3)Gal(b1-4)GlcNAc(b1-3)Gal(b1-4)GlcNAc(b1-6)]Man(a1-6)[GlcNAc(b1-3)Gal(b1-4)GlcNAc(b1-3)Gal(b1-4)GlcNAc(b1-2)Man(a1-3)]Man(b1-4)GlcNAc(b1-4)[Fuc(a1-6)]GlcNAc
# Summary of the method: as §1
# [4] = target: GlcNAc(b1-3)Gal(b1-4)GlcNAc(b1-3)Gal(b1-4)GlcNAc(b1-3)Gal(b1-4)GlcNAc(b1-2)Man(a1-3)[GlcNAc(b1-3)Gal(b1-4)GlcNAc(b1-3)Gal(b1-4)GlcNAc(b1-3)Gal(b1-4)GlcNAc(b1-2)Man(a1-6)]Man(b1-4)GlcNAc(b1-4)GlcNAc
# Summary of the method: as §1
# [5] = target: GlcNAc(b1-3)Gal(b1-4)GlcNAc(b1-3)Gal(b1-4)GlcNAc(b1-3)Gal(b1-4)GlcNAc(b1-2)Man(a1-3)[GlcNAc(b1-3)Gal(b1-4)GlcNAc(b1-3)Gal(b1-4)GlcNAc(b1-3)Gal(b1-4)GlcNAc(b1-2)Man(a1-6)]Man(b1-4)GlcNAc(b1-4)[Fuc(a1-6)]GlcNAc
# Summary of the method: as §1
# [6] = target: GlcNAc(b1-3)Gal(b1-4)GlcNAc(b1-3)Gal(b1-4)GlcNAc(b1-3)Gal(b1-4)GlcNAc(b1-2)[GlcNAc(b1-3)Gal(b1-4)GlcNAc(b1-3)Gal(b1-4)GlcNAc(b1-3)Gal(b1-4)GlcNAc(b1-6)]Man(a1-6)[GlcNAc(b1-3)Gal(b1-4)GlcNAc(b1-3)Gal(b1-4)GlcNAc(b1-3)Gal(b1-4)GlcNAc(b1-2)Man(a1-3)]Man(b1-4)GlcNAc(b1-4)[Fuc(a1-6)]GlcNAc
# Summary of the method: as §1
# [7] = target: GlcNAc(b1-3)Gal(b1-4)GlcNAc(b1-3)Gal(b1-4)GlcNAc(b1-3)Gal(b1-4)GlcNAc(b1-3)Gal(b1-4)GlcNAc(b1-2)Man(a1-3)[GlcNAc(b1-3)Gal(b1-4)GlcNAc(b1-3)Gal(b1-4)GlcNAc(b1-3)Gal(b1-4)GlcNAc(b1-3)Gal(b1-4)GlcNAc(b1-2)Man(a1-6)]Man(b1-4)GlcNAc(b1-4)GlcNAc
# Summary of the method: as §1
# [8] = target: GlcNAc(b1-3)Gal(b1-4)GlcNAc(b1-3)Gal(b1-4)GlcNAc(b1-3)Gal(b1-4)GlcNAc(b1-3)Gal(b1-4)GlcNAc(b1-2)Man(a1-3)[GlcNAc(b1-3)Gal(b1-4)GlcNAc(b1-3)Gal(b1-4)GlcNAc(b1-3)Gal(b1-4)GlcNAc(b1-3)Gal(b1-4)GlcNAc(b1-2)Man(a1-6)]Man(b1-4)GlcNAc(b1-4)[Fuc(a1-6)]GlcNAc
# Summary of the method: as §1
# [9] = target: GlcNAc(b1-3)Gal(b1-4)GlcNAc(b1-3)Gal(b1-4)GlcNAc(b1-3)Gal(b1-4)GlcNAc(b1-3)Gal(b1-4)GlcNAc(b1-2)[GlcNAc(b1-3)Gal(b1-4)GlcNAc(b1-3)Gal(b1-4)GlcNAc(b1-3)Gal(b1-4)GlcNAc(b1-3)Gal(b1-4)GlcNAc(b1-6)]Man(a1-6)[GlcNAc(b1-3)Gal(b1-4)GlcNAc(b1-3)Gal(b1-4)GlcNAc(b1-3)Gal(b1-4)GlcNAc(b1-3)Gal(b1-4)GlcNAc(b1-2)Man(a1-3)]Man(b1-4)GlcNAc(b1-4)[Fuc(a1-6)]GlcNAc
# Summary of the method: as §1
# [10] = target: GlcNAc(b1-3)Gal(b1-4)GlcNAc(b1-3)Gal(b1-4)GlcNAc(b1-3)GalNAc
# Summary of the method: as §1
# [11] = target: GlcNAc(b1-3)Gal(b1-4)GlcNAc(b1-3)GalNAc
# Summary of the method: as §1
# [12] = target: GlcNAc(b1-3)Gal(b1-4)GlcNAc(b1-3)[GlcNAc(b1-3)Gal(b1-4)GlcNAc(b1-3)]GalNAc
# Summary of the method: as §1
# [13] = target: GlcNAc(b1-3)Gal(b1-4)GlcNAc(b1-6)[Gal(b1-3)]GalNAc
# Summary of the method: as §1
# [14] = target: GlcNAc(b1-3)Gal(b1-4)GlcNAc(b1-6)[GlcNAc(b1-3)Gal(b1-3)]GalNAc
# Summary of the method: as §1
# [15] = target: GlcNAc(b1-3)Gal(b1-4)GlcNAc(b1-6)[GlcNAc(b1-3)]Gal(b1-4)GlcNAc
# Summary of the method: as §1
# GlcNAc(b1-3)GalNAc = target: GlcNAc(b1-3)GalNAc
# Summary of the method: as §1
# GlcNAc(b1-3)Man = target: GlcNAc(b1-3)Man
# Summary of the method: as §1
# [16] = target: GlcNAc(b1-3)[GlcNAc(b1-4)][GlcNAc(b1-6)]GlcNAc
# Summary of the method: as §1
# [17] = target: GlcNAc(b1-3)[GlcNAc(b1-6)]Gal(b1-4)GlcNAc
# Summary of the method: as §1
# [18] = target: GlcNAc(b1-3)[GlcNAc(b1-6)]GalNAc
# Summary of the method: as §1
# [19] = target: GlcNAc(b1-4)Gal(b1-4)GlcNAc
# Summary of the method: as §1
# GlcNAc(b1-4)GlcNAc = target: GlcNAc(b1-4)GlcNAc
# Summary of the method: as §1
# [20] = target: GlcNAc(b1-4)GlcNAc(b1-4)GlcNAc
# Summary of the method: as §1
binder,measurement,setting,value
B1,glycan array binding signal (z-score),[1],-0.167
same,glycan array binding signal (z-score),[2],2.03
same,glycan array binding signal (z-score),[3],-0.363
same,glycan array binding signal (z-score),[4],-0.748
same,glycan array binding signal (z-score),[5],0.384
same,glycan array binding signal (z-score),[6],0.298
same,glycan array binding signal (z-score),[7],0.683
same,glycan array binding signal (z-score),[8],-0.24
same,glycan array binding signal (z-score),[9],0.519
same,glycan array binding signal (z-score),[10],0.396
same,glycan array binding signal (z-score),[11],-0.113
same,glycan array binding signal (z-score),[12],0.421
same,glycan array binding signal (z-score),[13],-0.746
same,glycan array binding signal (z-score),[14],1.27
same,glycan array binding signal (z-score),[15],-0.444
same,glycan array binding signal (z-score),GlcNAc(b1-3)GalNAc,-0.73
same,glycan array binding signal (z-score),GlcNAc(b1-3)Man,-0.105
same,glycan array binding signal (z-score),[16],7.53
same,glycan array binding signal (z-score),[17],-0.225
same,glycan array binding signal (z-score),[18],-0.458
same,glycan array binding signal (z-score),[19],-0.169
same,glycan array binding signal (z-score),GlcNAc(b1-4)GlcNAc,-0.358
same,glycan array binding signal (z-score),[20],-0.641

# Some of the entries above in another layout:
binder	measurement	setting	value
B1	glycan array binding signal (z-score)	[11]	-0.113
same	glycan array binding signal (z-score)	[18]	-0.458

# Source: the supplement of paper PMC8728848
